We go through 68 molecules from PubChem BioAssay AID1458 (National Center for Advancing Translational Sciences (NCATS), 2008).

Molecules are shown by their SMILES. Out of some 210,000 compounds screened, about 5,900 (2.8%) were called active. Inconclusive results (about 5%) are left out. The call rests on the fitted dose curve; in most records, active means well fitted activation curve with a large enough effect; inconclusive means small, poorly fitted or top-dose-only effect; inactive means no such curve, though single readings can be large or run the other way. The entries are a selection whose mix differs from that of the whole data set. Where no call is shown, the source filed none.
Potency means the concentration at half of the fitted maximal effect.

A short description of this test: qHTS Assay for Enhancers of SMN2 Splice Variant Expression. Further: nearly all actives have a fitted effect of over 55% in size. On activity change, positive = activation: % of control where 0% means no effect. Conditions: HEK293 SMN2-luciferase splicing reporter, luminescence, 30-36 h; activity change, positive = activation: at 46.1 µM (top of the series) unless noted. From the text: NIH Chemical Genomics Center [NCGC] NIH Molecular Libraries Probe Production centers Network [MLPCN] MLPCN Grant: R03 MH084179-01 Assay Submitter (PI): Elliot Androphy NCGC Assay Overview: Spinal muscular atrophy (SMA) is caused by insufficient levels of the survival motor neuron protein SMN. The SMN locus on chromosome 5q13 contains two inverted copies of SMN called SMN1 and SMN2 which are 99% identical at the amino acid level. SMN1 is a fully functional protein and SMN2 skips exon 7 90% of the time. Skipping of exon 7 produces non-functional protein product. 10% of the SMN2 protein includes exon 7 and is fully functional. In the SMA disease state, mutations in the SMN1 locus are the cause of the disease state. Because only 10% of SMN2 is of the fully functional form, it is not sufficient to overcome the deficiency produced by the loss of the SMN1 product. A therapy that either increase the amount of SMN2 product made or to increase the inclusion of exon 7 has been proposed for the treatment of SMA. We have designed an assay to identify small molecules that can increase the amount of functional SMN2 product by appending a luciferase reporter gene after the native SMN2 gene, such that inclusion of exon 7 in the expressed product places the luciferase sequence in frame, thus generating functional luciferase enzyme.
NCGC Assay Protocol Summary: This screen utilizes a luciferase reporter gene assay, combining the promoter and splicing based cassettes in tandem with the major portion of the native SMN2 cDNA, and then transfected into HEK293 cells. Compounds that increase luciferase signal presumably enhance expression of the functional SMN2 splice variant. Passaging media contained DMEM w/ glutamax (+phenol red) 10% FCS, 1x pen/strep, 200 ug/ml hygro, 1x sodium pyruvate. Assay media contained DMEM w/ glutamax (-phenol red) 10% FCS, 1x pen strep, 1x pyruvate Sequence, Parameter, Value, Description (1) Cells, […], 2000 cells/well, 1536 TC treated White solid bottom plate (2) Time, 10-12 hours, 37C 5% CO2 (3) Compound, 23 nl, MLSMR Library (4) Control Compound, 23 nL, Sodium butyrate st 4.5mM (final) conc (5) Time, 30-36 hours, 37C 5% CO2 (6) Reagent, 3 ul, One Glo (TM) from Promega (7) Time, 5-15 minutes, Room temp (8) Detector, Viewlux: luminescent read, 60 second integration, high speed 2x binning Keywords: Spinal muscular atrophy, SMA, SMN2, high throughput screening, MLSMR, MLPCN, NIH Roadmap, qHTS and NCGC
As for `Cc1ccc(C)c(NC2=NS(=O)(=O)c3ccccc32)c1`, the activity change, positive = activation was found to be 42.3%.

Regarding `CCCCNS(=O)(=O)c1ccc(NC(=O)C2CCCO2)cc1` (stereo not drawn), the “activity change, positive = activation” value is inactive: -33.9%.

For the molecule `O=C(CSc1ccc(-c2ccc3c(c2)OCO3)nn1)Nc1nccs1`, the activity change, positive = activation is -12.9%.

As for `CC(C)c1cc(C(=O)Nc2cccc(Cl)c2)no1`, the Potency is active: 11.2 µM.

Consider `COc1ccc(Cl)cc1NC(=O)CN1CCC(n2nnc3cc(C)ccc32)CC1`, for which the “activity change, positive = activation” value is inactive: -58.8%.

For the molecule `COC(=O)Cc1ccc(NC(=S)N2CCN(c3ccc(F)cc3)CC2)cc1`, the “activity change, positive = activation” value is inactive: -46.4%.

With `COc1cc(CNc2cccc(C(=O)O)c2)cc(Br)c1OCC(=O)NC(C)(C)C`, the activity change, positive = activation was found to be 9.2%.

On to `O=C(Nc1cccc(C(F)(F)F)c1)c1cnc2n(c1=O)CCS2`, for which the “activity change, positive = activation” value was inactive: -19.5%.

In the case of `COc1ccc(C)cc1NC(=O)c1ccccc1NS(=O)(=O)c1ccc(Cl)s1`, the activity change, positive = activation was -57%.

`C=CCSc1nnc2c(n1)OC(c1c(C)[nH]n(-c3ccccc3)c1=O)Nc1ccccc1-2` (stereo not drawn): the activity change, positive = activation was determined as 31.9%.

Consider `CCOC(=O)C(Cc1cc(C(C)=O)ccc1OCC)C(=O)OCC`, for which the activity change, positive = activation was found to be 33.8%.

As to `Cc1ccc(C)c(NC(=O)CSc2ccc(-c3ccco3)nn2)c1`, the activity change, positive = activation amounted to 30.1%.

`Cc1cccc(OCc2nnc(SCC(=O)Nc3cc(C)on3)n2C)c1`: the activity change, positive = activation came out at 38%.

Turning to `CC(C)Cn1c2nc3ccccc3nc2c2c(=O)n(CCN3CCOCC3)cnc21`, the activity change, positive = activation turned out to be 33.3%.

Consider `CC(=O)Cc1nsc(NC(=O)c2cccs2)n1`, for which the activity change, positive = activation came out at 34.4%.

As for `Cc1cc(C(=O)COc2cccc(-n3cnnn3)c2)c(C)n1-c1ccccc1`, the “activity change, positive = activation” value was inactive: -32.3%.

As to `Cc1ccc(NC(=S)c2nc3ccccc3[nH]2)c(C)c1`, the Potency was active: 5.62 µM.

As to `Cc1ccccc1C(=O)NCCSc1ccccc1`, the Potency is active: 12.6 µM.

Consider `Cc1cccc(/N=C/c2nc(-c3ccccc3Br)oc2O)n1`, for which the “activity change, positive = activation” value was inactive: -21.6%.

For the molecule `CCOC(=O)N1CCC(Nc2c(Nc3ccc(F)cc3)c(=O)c2=O)CC1`, the activity change, positive = activation was determined as 52.9%.

Regarding `CCOC(=O)NC(=O)c1cn(C(CC)CO)c(=O)[nH]c1=O` (stereo not drawn), the activity change, positive = activation was -27.5%.

Turning to `Cc1ccc(C(=O)Nc2cccc(C(=O)O)c2)cc1S(=O)(=O)N1CCOCC1`, the Potency is active: 12.6 µM.

Take `O=C(Nc1ccccc1C(=O)N/N=C/c1ccncc1)c1ccccc1`: the activity change, positive = activation worked out at 136%.

`COc1cc(C(=O)OC2CCN(C)CC2)cc(OC)c1OC`: the activity change, positive = activation was found to be 37.5%.

Consider `CCN1CCCC1CNC(=O)C(=O)Nc1cccc(OC)c1` (stereo not drawn), for which the activity change, positive = activation is 10%.

In the case of `CCN1/C(=C/c2ccc3cc(C)ccc3[n+]2CC)Sc2cc(C)ccc21`, the “activity change, positive = activation” value is inactive: -63.1%.

On to `Cc1ccc(NS(=O)(=O)c2ccc(C(=O)N3CCN(c4ncccn4)CC3)cc2)cc1`, for which the “activity change, positive = activation” value is inactive: -47.7%.

With `Cc1c(NC(=O)CCSCCc2ccccn2)cccc1[N+](=O)[O-]`, the activity change, positive = activation was -34.9%.

For the molecule `Cc1ccc(CNC2=NCCCCC2)n1C`, the activity change, positive = activation came out at 44.6%.

In the case of `O=C(CCCC(=O)OCC(=O)NC1CCCC1)Nc1ccccn1`, the activity change, positive = activation worked out at 54.7%.

For the molecule `CCOC(=O)c1ccc(N2CC(O)=C(c3nc4ccccc4c(=O)[nH]3)C2=N)cc1`, the activity change, positive = activation was 42.1%.

`O=C(c1ccc(S(=O)(=O)N2CCOCC2)cc1)N1CCN(C2=NS(=O)(=O)c3ccccc32)CC1`: the activity change, positive = activation turned out to be 29.8%.

With `O=C(Nc1nnc(-c2ccc3c(c2)CCCC3)o1)c1ccccc1`, the “activity change, positive = activation” value is inactive: -48.1%.

In the case of `CCc1c(C)sc(NC(=O)c2cnn3cccnc23)c1C#N`, the activity change, positive = activation was found to be 25.6%.

For the molecule `COc1ccc(-n2cccc2/C=C/[N+](=O)[O-])cc1`, the “activity change, positive = activation” value is inactive: -95.6%.

With `C#CC(=O)N(c1cc(OC)ccc1OC)C(C(=O)NC1CCCC1)c1cccs1` (stereo not drawn), the “activity change, positive = activation” value is inactive: -33.7%.

For `Cn1c(=O)n(C)c2cc(NC(=O)c3cc4ccccc4o3)ccc21`, the activity change, positive = activation came out at 82%.

Consider `O=C(c1c[nH]c(C(=O)N2CCN(c3ccccc3F)CC2)c1)c1cccc(Cl)c1Cl`, for which the “activity change, positive = activation” value is inactive: -52.8%.

As to `CCCN(CCC)CCCNC(=O)c1nn(-c2cccc(OC)c2)c(=O)c2ccccc12`, the activity change, positive = activation is -23.6%.

Regarding `Cc1ccc2c(c1)C(=O)c1ccccc1CS2=O` (stereo not drawn), the “activity change, positive = activation” value was inactive: -44.8%.

For the molecule `COC(=O)c1cccc(S(=O)(=O)N2CCC(n3nnc4cc(F)ccc43)CC2)c1`, the “activity change, positive = activation” value was inactive: -38.3%.

Turning to `O=C(COC(=O)c1ccccc1)Nc1ccccc1Br`, the activity change, positive = activation amounted to 34.1%.

Turning to `COc1ccc(-n2nnc(C(=O)Nc3ccccc3F)c2N)cc1`, the Potency is active: 7.08 µM.

As for `CC(C)c1ccccc1S(=O)(=O)c1cc(N)c2ncccc2c1[N+](=O)[O-]`, the “activity change, positive = activation” value is inactive: -37.5%.

`O=C(CSc1c2c(nc3cc(Cl)ccc13)CCCC2)N1CCN(c2ccccc2F)CC1`: the “activity change, positive = activation” value is inactive: -32.1%.

In the case of `CC(=O)Nc1ccc(S(=O)(=O)N(Cc2ccco2)CC2CCCO2)cc1` (stereo not drawn), the activity change, positive = activation worked out at 32%.

In the case of `CCOC(=O)N1CC=C2C(C#N)=C(N)C(C#N)(C#N)[C@H](c3ccccc3OCC)[C@H]2C1`, the activity change, positive = activation stood at 47.6%.

`CCOc1cc(-c2c(C#N)c(N)nc3c2CCc2ccccc2-3)ccc1O`: the Potency is active: 12.6 µM.

For `COc1cc(C(=O)N/N=c2/sc3ccccc3n2C)cc(OC)c1OC`, the activity change, positive = activation was inactive: -67% [at 1.84 µM].

Regarding `COc1cccc(C2CC(c3ccc(Cl)cc3)Nc3nc(N)nn32)c1` (stereo not drawn), the activity change, positive = activation was 19.9%.

With `Cc1ccc2[nH]c3c(NCCN4CCOCC4)ncnc3c2c1`, the “activity change, positive = activation” value is inactive: -31.6%.

With `Nc1ccc2nc(-c3ccc(O)cc3)sc2c1`, the Potency is active: 1.41 µM.

`Cc1sc(NC(=O)c2ccc(Cl)s2)c(C(N)=O)c1C`: the Potency was active: 10 µM.

Turning to `CC1(c2ccccc2)NC(=O)N(N)C1=O` (stereo not drawn), the activity change, positive = activation amounted to 45.3%.

For the molecule `COc1cc2cc(C(c3nnnn3C(C)(C)C)N3CCc4ccccc4C3)c(=O)[nH]c2cc1OC` (stereo not drawn), the activity change, positive = activation worked out at 54.5%.

On to `O=C(COc1cccc(NC(=O)c2cccc([N+](=O)[O-])c2)c1)c1ccc(F)cc1`, for which the “activity change, positive = activation” value was inactive: -69.7%.

As for `COc1cc(-c2nnc(SCC(=O)N(Cc3ccccc3)C(C)(C)C)o2)cc(OC)c1OC`, the “activity change, positive = activation” value is inactive: -31.2%.

As to `Cc1ccc(N/C=C/C(=O)c2ccc(C)cc2)cc1`, the activity change, positive = activation was 28.3%.

Regarding `COc1ccc(NS(=O)(=O)c2ccc3nc(COc4ccc(C#N)cc4)[nH]c3c2)cc1`, the “activity change, positive = activation” value was inactive: -12.3%.

With `CC(Sc1nnc2ccccn12)C(=O)Nc1ccc(Cl)cn1` (stereo not drawn), the activity change, positive = activation was 31.8%.

In the case of `COc1ccc(-c2nn(-c3ccccc3)cc2/C=C/C(=O)NCCCn2ccnc2)cc1OC`, the activity change, positive = activation stood at 47.4%.

On to `Cc1ccc2nc3ccc(N4CCN(C)CC4)nn3c(=O)c2c1`, for which the activity change, positive = activation was 104%.

Regarding `CCn1cc(C(=O)NCc2ccco2)c(=O)c2cc(F)c(N3CCN(C(=O)c4ccco4)CC3)cc21`, the activity change, positive = activation amounted to 37.4%.

Take `CSc1nnc(-c2cccc(C)c2)n1N`: the activity change, positive = activation stood at 38.3%.

On to `O=C(CCCNS(=O)(=O)c1cccs1)N1CCN(c2cccc(Cl)c2)CC1`, for which the “activity change, positive = activation” value was inactive: -60.7%.

As for `OC1CN=C2CCCc3c2n(c2ccc(Cl)cc32)C1` (stereo not drawn), the activity change, positive = activation was 46.2%.

On to `COc1ccc(Nc2nc(C)nc3c2nnn3Cc2ccccc2)cc1OC`, for which the “activity change, positive = activation” value is inactive: -78.2%.

Turning to `O=S(=O)(Nc1cccc2cccnc12)c1ccc(S(=O)(=O)N2CCCC2)cc1`, the activity change, positive = activation is -42.4%.
